Experimental data: PubChem BioAssay AID1259254 (NCATS, 2017)

- Aim: 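Gene knock-downs that lead to re-replication, shown by excess G2 DNA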 (primary screen)
- Cell system: human HCT116 colorectal cancer cells
- Knock-down reagent: single siRNA against human genes
- Duration: 3 days
- Detection: 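Nuclei stained with Hoechst and imaged; cell-cycle phase assigned by DNA content; G2 share scaled per plate, non-targeting siRNA 0%, GMNN siRNA 100%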
- Direction: G2 robust z-score: higher = more G2 cells, more excess DNA replication
- Rule for the call: 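Active siRNAs have a G2 robust z of 5 or more median absolute deviations over the median, which in these data means about 38% or higher of GMNN control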
Here is one part, drawn at random, of about 59,000 reagents. In the full data, about 1,550 (2.6%) got an active call. 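G2 share is only a proxy for re-replication; each gene was hit by three separate siRNAs, and active genes were retested.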 The numbers tell different reagents against one gene apart. Not all columns of the deposit are shown. The record does not give: the amount of reagent.

For MS4A7 (membrane spanning 4-domains A7) #1 the deposit lists G2 robust z-score -1.26; inactive.
MS4A7 (membrane spanning 4-domains A7) #2 gave G2 robust z-score 2.96; inactive.
MS4A7 (membrane spanning 4-domains A7) #3 gave G2 robust z-score 5.12; active.
Against RRAS (RAS related) #1 the deposit lists G2 robust z-score 2.07; inactive.
Silencing of RRAS (RAS related) #2 gave: G2 robust z-score 3.3; inactive.
RRAS (RAS related) #3 gave G2 robust z-score -0.234; inactive.
Knock-down of DOCK5 (dedicator of cytokinesis 5) #1 resulted in: G2 robust z-score 2.46; inactive.
DOCK5 (dedicator of cytokinesis 5) #2 gave G2 robust z-score 1.51; inactive.
Silencing of DOCK5 (dedicator of cytokinesis 5) #3 came out at: G2 robust z-score -1.32; inactive.
After knock-down of HOXB7 (homeobox B7) #1, the record shows G2 robust z-score 2.01; inactive.
For HOXB7 (homeobox B7) #2, the entry reads G2 robust z-score -0.971; inactive.
Depletion of HOXB7 (homeobox B7) #3 came out at: G2 robust z-score -1.04; inactive.
After knock-down of IP6K3 (inositol hexakisphosphate kinase 3) #1, the record shows G2 robust z-score -0.00706; inactive.
Against IP6K3 (inositol hexakisphosphate kinase 3) #2, the values are G2 robust z-score 5.46; active.
IP6K3 (inositol hexakisphosphate kinase 3) #3 scored G2 robust z-score 0.299; inactive.
After knock-down of PHF3 (PHD finger protein 3) #1, the screen gave G2 robust z-score 0.768; inactive.
Depletion of PHF3 (PHD finger protein 3) #2 resulted in: G2 robust z-score 0.228; inactive.
Against PHF3 (PHD finger protein 3) #3, the values are G2 robust z-score -0.89; inactive.
Silencing of ZNF475 (zinc finger protein 475) #1 gave: G2 robust z-score -0.413; inactive.
For ZNF475 (zinc finger protein 475) #2, the entry reads G2 robust z-score -0.368; inactive.
For ZNF475 (zinc finger protein 475) #3 the deposit lists G2 robust z-score 0.643; inactive.
With knock-down of SIK2 (salt inducible kinase 2) #1, the record shows G2 robust z-score 0.0569; inactive.
Depletion of SIK2 (salt inducible kinase 2) #2 gave: G2 robust z-score 0.9; inactive.
Depletion of SIK2 (salt inducible kinase 2) #3 gave: G2 robust z-score -0.358; inactive.

Targets above whose gene name begins with Z or z:
ZNF475 (zinc finger protein 475) #1 | G2 robust z-score: -0.413; outcome: inactive
ZNF475 (zinc finger protein 475) #2 | G2 robust z-score: -0.368; outcome: inactive
ZNF475 (zinc finger protein 475) #3 | G2 robust z-score: 0.643; outcome: inactive
